# In PubChem BioAssay AID1439 (NMMLSC, 2008):
# By UniProt entry, the sequences of proteins in these tests, tags left out.
# UniProt P09471, whole entry, looked up: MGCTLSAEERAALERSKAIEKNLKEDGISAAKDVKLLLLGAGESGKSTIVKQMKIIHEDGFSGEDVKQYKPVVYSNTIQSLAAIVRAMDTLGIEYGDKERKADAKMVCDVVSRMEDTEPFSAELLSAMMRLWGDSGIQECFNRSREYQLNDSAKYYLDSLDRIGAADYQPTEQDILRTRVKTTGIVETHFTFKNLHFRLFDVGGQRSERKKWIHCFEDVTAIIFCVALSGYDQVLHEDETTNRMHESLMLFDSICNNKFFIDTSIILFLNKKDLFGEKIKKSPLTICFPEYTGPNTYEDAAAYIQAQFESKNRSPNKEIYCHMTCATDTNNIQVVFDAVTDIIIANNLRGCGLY
# Out of some 220,000 compounds screened, about 770 (0.35%) were called active. This list was built around the results that the source calls inconclusive (neither active nor inactive); the mix of calls is not that of the screen. Cut-off read from the data, not from the text of the source: active = binding response below about 49% or above about 150%; inconclusive = no clear call, values can overlap the other calls; inactive = in between.
# Molecular target: Guanine nucleotide-binding protein G(o) subunit alpha (Homo sapiens) (UniProt P09471)
# Test: RGS7-Galphao binding modulators, primary screen, biochemical, multiplexed bead flow cytometry (AID 1439);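 note: fluorescent Galphao held in activated GDP-AlF4 state binding bead-coupled RGS7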
# Details: at 10 µM, actives lie on both sides
row,Structure (SMILES),binding response (% of control)
1,COc1ccc(-c2cc3cc(C(=O)O)ccn3c2C(=O)c2ccccc2)cc1,inconclusive: 81.7%
2,COc1ccc2c(c1)oc(=O)c1c3ccccc3[nH]c21,inconclusive: 80.8%
3,CC[C@H](NC(=O)c1c(C)c(-c2ccccc2)nc2ccccc12)c1ccccc1,inconclusive: 92.9%
4,CC/C(=N/O)c1cnnc(SC)n1,inactive: 96.8%
5,N/C(Cc1nc(-c2ccc(F)cc2)cs1)=N\O,inconclusive: 94%
6,Cc1ccc(C2CC(=O)C=C(NCc3ccccc3)C2)cc1 (stereo unspecified),inconclusive: 87.1%
7,CCCc1cc(=O)oc2c(CN(CC)CC)c(O)c(Cl)cc12,inconclusive: 474%
8,O=C(COC(=O)c1cccs1)NC12CC3CC(CC(C3)C1)C2,inconclusive: 104%
9,O=C(NCc1ccc(F)cc1)C1CCCN(c2nc3ccsc3c(=O)s2)C1 (stereo unspecified),inconclusive: 84.2%
10,Cc1ccccc1NC(=O)C(Cl)=C(Cl)Cl,inconclusive: 157%
11,COc1cccc(/C=N\NC(=O)Cn2nnc3ccccc32)c1O,inactive: 88%
12,COc1cc2nc(CN(C)Cc3ccc(SC)cc3)[nH]c(=O)c2cc1OC,inconclusive: 108%
13,CCN(CC)S(=O)(=O)c1ccc(N2CCOCC2)c(NC(=O)CC(C)(C)C)c1,inconclusive: 831%
14,COc1ccc(-c2noc(CN(Cc3nccn3C)C(C)C)n2)cc1,inconclusive: 360%
15,c1ccc(Oc2cccc(CN3CCOCC3)c2)cc1,inactive: 102%
16,COC(=O)c1scc(C)c1NC(=O)CSc1ccc(Cl)cc1,inconclusive: -60%
17,CCC(=O)Nc1ccc(Cl)c(NC(=O)c2c(OC)cccc2OC)c1,inconclusive: 107%
18,O=C(O)C1CCN(C(=O)c2cc(F)cc3c2OCOC3)CC1,inconclusive: 108%
19,CC1(c2ccc(Cl)cc2)NC(=S)N2C1NC(=S)N2c1ccccc1 (stereo unspecified),inconclusive: 103%
20,COc1cccc(/C=N/NC(=S)Nc2cccc(S(=O)(=O)N(C)C)c2)c1,inconclusive: 110%
21,Cn1cc([N+](=O)[O-])c(C(=O)Nc2ccc(-c3nc4ccccc4o3)cc2)n1,inconclusive: 119%
22,CC(C)Sc1nc2ncnc(N)c2[nH]1,inactive: 95.8%
23,CC(C)CCN1NC2(CCC(C)CC2)NC1=S (stereo unspecified),inconclusive: 105%

row,Structure (SMILES),binding response (% of control)
1,COc1ccc(/C=C/CN2CCCC(C(=O)c3ccc(OC)c(F)c3)C2)cc1 (stereo unspecified),inactive: 111%
2,O=C(CN1C(=O)C2CC=CCC2C1=O)Nc1ccc(S(=O)(=O)Nc2nccs2)cc1 (stereo unspecified),inconclusive: 96.9%
3,O=C(CNC(=O)c1cccs1)N/N=C/c1c[nH]c2ccccc12,active: 2.4%
4,COC(=O)c1ccc2c(=O)n(-c3ccccc3)c(=S)[nH]c2c1,inconclusive: 109%
5,Cn1cc(S(=O)(=O)NCCc2ccccc2)c(=O)n(C)c1=O,inconclusive: 103%
6,COC(=O)c1ccc(NC(=O)C2CC(=O)OC2c2ccccc2)cc1 (stereo unspecified),inconclusive: 144%
7,COc1ccc(NC(=O)c2c(C)nn(Cc3ccccc3)c2Cl)cc1S(=O)(=O)N1CCOCC1,inconclusive: 111%
8,Cc1ccn2cc(-c3ccc(Br)cc3)nc2c1,inconclusive: -23.9%
9,O=C(Nc1cccc(C(F)(F)F)c1)Oc1ccc(Cl)c2cccnc12,inconclusive: 184%
10,Cc1cc(C)c(C)c(S(=O)(=O)NC(C)C(=O)O)c1C (stereo unspecified),inconclusive: 84.2%
11,NC(=O)COC(=O)c1c2c(nc3ccccc13)CCCCC2,inconclusive: 110%
12,CCCCNC(=O)CSc1nc2ccc(Nc3nc(N4CCOCC4)nc(N4CCOCC4)n3)cc2s1,inconclusive: -92.6%
13,CC(/C=C/c1ccco1)=N\NC(=O)COc1ccc(C)c(C)c1,inactive: 94.6%
14,Cc1cc(SCC(=O)NN)c2cc(Br)ccc2n1,inconclusive: 86.8%
15,COC(=O)c1c(C)oc(C)c1S(=O)(=O)N(C)C1CCCCC1,inconclusive: 91.7%
16,Cc1cccc(C(C)C)c1NC(=O)c1ccc(CN(c2ccccc2)S(=O)(=O)c2ccccc2)cc1,inactive: 108%
17,CCOc1ccc(C(=O)N[C@H](C(=O)Nc2cccc(S(=O)(=O)N3CCCCC3)c2)C(C)C)cc1,inactive: 88.3%
18,S=C(NCCc1c[nH]c2ccccc12)NC1CC1,inconclusive: 107%
19,COc1cc(/C=N/N(C)C)cc(Br)c1O,inconclusive: 127%
20,COc1ccccc1NC(=O)C(=O)N(c1cccnc1)C(C(=O)NC(C)(C)C)c1ccccc1 (stereo unspecified),inconclusive: 102%
21,COc1ccc(S(=O)(=O)N(C)c2c(C)n(C)n(-c3ccccc3)c2=O)cc1OC,active: 203% [activator]
22,Cc1cc(/C=C2\NC(=S)NC2=O)c(C)n1-c1cccnc1,inconclusive: -102%
23,O=C(Nc1ccc(N2CCOCC2)nc1)c1ccccc1Cl,inconclusive: 76.2%

row,Structure (SMILES),binding response (% of control)
1,CCNC(=S)N1CCN(CCN=CC2=C(O)CC(C)(C)CC2=O)CC1,inconclusive: 120%
2,COc1ccccc1/C=[N+](\[O-])C1SC(=S)N(C)C1(C)C (stereo unspecified),inconclusive: 96.7%
3,O=S(=O)(c1ccc(Br)cc1)N1CCN(c2cc(-c3ccccc3)nc3ncnn23)CC1,inactive: 101%
4,COc1ccc(N2CCN(C(=O)c3cccn4c(=O)c5ccccc5nc34)CC2)cc1,inactive: 101%
5,CCOc1cc(/C=N\Nc2ccc([N+](=O)[O-])cc2)ccc1OCC(=O)Nc1ccc(C)c(C)c1,inactive: 95.2%
6,COC(=O)c1ccc(Oc2nc(C(N)=O)cc(-c3ccccc3)n2)cc1,inactive: 98.2%
7,Nc1nc2n(n1)C(=O)CC(c1ccccc1)N2 (stereo unspecified),inactive: 102%
8,COc1cc(/C=C2\SC(=O)N(CCNC(=O)c3sc4cc(F)ccc4c3Cl)C2=O)cc(OC)c1OC,inactive: 101%
9,CCOC(=O)c1nc2ccccc2c(=O)[nH]1,inconclusive: 68.2%
10,COc1ccc(-n2c(=O)n(Cc3ccccc3)c(=O)c3[nH]cnc32)cc1,inconclusive: -55.2%
11,CC(C)c1ccc(C(C(=O)NC2CCCCC2)N(C(=O)c2ccccn2)c2cccnc2)cc1 (stereo unspecified),inactive: 106%
12,O=[N+]([O-])c1ccc(-n2cnc3ccccc32)c([N+](=O)[O-])c1,inactive: 92.3%
13,O=C(NCCc1c[nH]c2ccccc12)c1c(Cl)nc2sccn12,active: 19.1%
14,COC(C/C=C/[C@@H](O)COCc1ccccc1)OC,inconclusive: 100%
15,CCN(CC)c1ccc(/C=N/Nc2nc(C)cc(C)n2)cc1,inconclusive: 11.1%
16,CC12CCC(C(=O)N/N=C/c3ccc(O)cc3O)(OC1=O)C2(C)C (stereo unspecified),inconclusive: 2.01%
17,COc1ccc(NC(=S)Nc2ccc(OCc3ccccc3)cc2)c(OC)c1,active: 165% [activator]
18,CC(=O)Nc1ncnc2c1c(-c1ccc(Cl)cc1)nn2C(C)(C)C,inconclusive: 108%
19,O=C(N/N=C/c1ccc(Cl)s1)c1ccccc1[N+](=O)[O-],inconclusive: 185%
20,COc1ccc(C(=O)OCC(=O)NCCCc2ccccc2)cc1[N+](=O)[O-],inconclusive: 83%
21,CCN(CC)CCC(C)OC(c1ccccc1)c1ccccc1 (stereo unspecified),inactive: 103%
22,COc1ccc(OC)c(C(Nc2ccccc2)P(=O)(OC(C)C)OC(C)C)c1 (stereo unspecified),inconclusive: 107%
23,Cn1cc2c(=O)n(/N=C/c3ccccc3)cnc2n1,inactive: 102%

row,Structure (SMILES),binding response (% of control)
1,COc1ccccc1CN(C)C(C)C(=O)Nc1cccc(C(C)=O)c1 (stereo unspecified),inconclusive: 113%
2,CCN1CCN(C(C)C(=O)NC2CCCCC2)CC1 (stereo unspecified),inconclusive: 95.5%
3,CC(NC(=O)c1cc(COc2ccc3ncccc3c2)on1)c1ccc(F)cc1 (stereo unspecified),inconclusive: 114%
4,Cn1c(CSCc2ccc(F)cc2)nnc1SCC(=O)Nc1cccc(C(=O)O)c1,inconclusive: 67.2%
5,COc1cccc(CN(C)C(=S)Nc2cccc(C)c2)c1,inactive: 96.5%
6,CCOc1ccc(OCCCCNCCN)cc1,inactive: 103%
7,Cc1ccc2nc(Cl)c(/C=C/C(=O)c3ccco3)cc2c1,inconclusive: 127%
8,COc1ccc(C(=O)OCn2nnc3ccccc3c2=O)cc1,inactive: 103%
9,Cc1ccc(C)c(OCc2nc3ccc(S(=O)(=O)Nc4c(C)n(C)n(-c5ccccc5)c4=O)cc3[nH]2)c1,inconclusive: 103%
10,N=c1ccn(Cc2ccc(F)cc2)cc1,inconclusive: 84.5%
11,COc1cc(/C=N/NC(=O)c2ccc(CN3c4cccc5cccc(c45)S3(=O)=O)cc2)cc(OC)c1O,inconclusive: 87.2%
12,CCCCCC(=O)N1CC2(CC(c3cccc(NC(=O)CC(c4ccccc4)c4ccccc4)c3)=NO2)C[C@@H]1C(N)=O (stereo partly specified),inconclusive: 137%
13,COc1ccc(C(=O)NCCC2=CCCCC2)cc1[N+](=O)[O-],inconclusive: 116%
14,CCNc1nc(NCC)nc(N/N=C/c2ccc(O)c(O)c2)n1,inconclusive: 93%
15,COc1ccccc1/C=N/NC(=O)CNC(=O)c1ccccc1,inconclusive: 115%
16,CCOC(=O)c1nnsc1N,inconclusive: -18.6%
17,CCCC(=O)Nc1nc2c(C)c(Cl)ccc2s1,inconclusive: 82.5%
18,COc1cccc(/C=N/NC(=O)c2cccs2)c1,inconclusive: 89.1%
19,COc1cc(C(=O)N[C@H](C(=O)Nc2nnc(C3CC3)s2)C(C)C)cc(OC)c1OC,inconclusive: 102%
20,CCCCC(=O)Nc1nc2c(OC)cc([N+](=O)[O-])cc2s1,inconclusive: 86.4%
21,Cc1nc(-c2noc(-c3ccc(Cl)cc3)n2)c(C(F)(F)F)o1,inconclusive: 250%
22,Cc1ccc(NC(=O)c2ccc(=O)[nH]c2)cc1S(=O)(=O)N1CCCCC1,inconclusive: 74.9%

# Shown with bars between the fields: three of the compounds above.
row | Structure (SMILES) | binding response (% of control)
2 | CCN1CCN(C(C)C(=O)NC2CCCCC2)CC1 (stereo unspecified) | inconclusive: 95.5%
3 | CC(NC(=O)c1cc(COc2ccc3ncccc3c2)on1)c1ccc(F)cc1 (stereo unspecified) | inconclusive: 114%
4 | Cn1c(CSCc2ccc(F)cc2)nnc1SCC(=O)Nc1cccc(C(=O)O)c1 | inconclusive: 67.2%

# Molecules listed so far containing bromine, in the order listed:
row,Structure (SMILES),binding response (% of control)
8,Cc1ccn2cc(-c3ccc(Br)cc3)nc2c1,inconclusive: -23.9%
14,Cc1cc(SCC(=O)NN)c2cc(Br)ccc2n1,inconclusive: 86.8%
19,COc1cc(/C=N/N(C)C)cc(Br)c1O,inconclusive: 127%
3,O=S(=O)(c1ccc(Br)cc1)N1CCN(c2cc(-c3ccccc3)nc3ncnn23)CC1,inactive: 101%
